Experimental data: PubChem BioAssay AID1508597 (Cure First, 2020)
The deposit covers about 2,100 reagents; below is an unselected part. 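Calls flag viability under 80% in either arm, not effects specific to rucaparib; the reference for percent is not stated.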 A number with no mark means an inactive call. Not given: the 100% reference.

Assay: 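Genes whose silencing sensitises or protects ovarian cancer cells against rucaparib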 (primary screen)
System: human ovarian carcinoma lines grown from tumours: OCI-P5x (papillary serous) and OCI-C5x (clear cell)
Reagents: siRNA pool against human genes, 1.25 pmol siRNA per well
Timing: 72 h or 96 h, depending on the cell culture
Conditions: rucaparib 20 µM (about IC30) or vehicle, present until read-out
Measurement: 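Luminescent ATP-based viability assay read 72 or 96 h after transfection, depending on culture, given as normalised percent viability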
Scale: viability, normalised: higher = more viable cells remaining
Hit rule: 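Active when normalised viability falls below 80 percent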
Calls: active = viability under 80%; inactive = viability 80% or more

gene knocked down	rucaparib or vehicle	cell line	technical replicate	viability, normalised (%)
SLC1A4	Rucaparib	OCI-C5x (clear cell)	1	41.3 (active)
SLC1A4	Rucaparib	OCI-C5x (clear cell)	2	60.9 (active)
SLC1A4	Rucaparib	OCI-C5x (clear cell)	3	55.9 (active)
SLC1A4	Rucaparib	OCI-P5x (serous)	1	56.5 (active)
SLC1A4	Rucaparib	OCI-P5x (serous)	2	50.2 (active)
SLC1A4	Rucaparib	OCI-P5x (serous)	3	55.7 (active)
SLC1A4	Vehicle	OCI-C5x (clear cell)	1	60.8 (active)
SLC1A4	Vehicle	OCI-C5x (clear cell)	2	65 (active)
SLC1A4	Vehicle	OCI-C5x (clear cell)	3	49.1 (active)
SLC1A4	Vehicle	OCI-P5x (serous)	1	58.9 (active)
SLC1A4	Vehicle	OCI-P5x (serous)	2	58.9 (active)
SLC1A4	Vehicle	OCI-P5x (serous)	3	58.4 (active)
POLD1	Rucaparib	OCI-C5x (clear cell)	1	44.3 (active)
POLD1	Rucaparib	OCI-C5x (clear cell)	2	54.7 (active)
POLD1	Rucaparib	OCI-C5x (clear cell)	3	49.8 (active)
POLD1	Rucaparib	OCI-P5x (serous)	1	59.3 (active)
POLD1	Rucaparib	OCI-P5x (serous)	2	78.3 (active)
POLD1	Rucaparib	OCI-P5x (serous)	3	74.4 (active)
POLD1	Vehicle	OCI-C5x (clear cell)	1	48.4 (active)
POLD1	Vehicle	OCI-C5x (clear cell)	2	32.3 (active)
POLD1	Vehicle	OCI-C5x (clear cell)	3	48 (active)
POLD1	Vehicle	OCI-P5x (serous)	1	69.4 (active)
POLD1	Vehicle	OCI-P5x (serous)	2	83.8
POLD1	Vehicle	OCI-P5x (serous)	3	72.5 (active)
FANCI	Rucaparib	OCI-C5x (clear cell)	1	48.8 (active)
FANCI	Rucaparib	OCI-C5x (clear cell)	2	45.7 (active)
FANCI	Rucaparib	OCI-C5x (clear cell)	3	46 (active)
FANCI	Rucaparib	OCI-P5x (serous)	1	57.7 (active)
FANCI	Rucaparib	OCI-P5x (serous)	2	69.8 (active)
FANCI	Rucaparib	OCI-P5x (serous)	3	59.2 (active)
FANCI	Vehicle	OCI-C5x (clear cell)	1	63.3 (active)
FANCI	Vehicle	OCI-C5x (clear cell)	2	63.6 (active)
FANCI	Vehicle	OCI-C5x (clear cell)	3	52.7 (active)
FANCI	Vehicle	OCI-P5x (serous)	1	64.7 (active)
FANCI	Vehicle	OCI-P5x (serous)	2	65.1 (active)
FANCI	Vehicle	OCI-P5x (serous)	3	69.4 (active)
CAMK2A	Rucaparib	OCI-C5x (clear cell)	1	55.8 (active)
CAMK2A	Rucaparib	OCI-C5x (clear cell)	2	61.7 (active)
CAMK2A	Rucaparib	OCI-C5x (clear cell)	3	58.2 (active)
CAMK2A	Rucaparib	OCI-P5x (serous)	1	113
CAMK2A	Rucaparib	OCI-P5x (serous)	2	96.2
CAMK2A	Rucaparib	OCI-P5x (serous)	3	104
CAMK2A	Vehicle	OCI-C5x (clear cell)	1	68.2 (active)
CAMK2A	Vehicle	OCI-C5x (clear cell)	2	55.2 (active)
CAMK2A	Vehicle	OCI-C5x (clear cell)	3	57.7 (active)
CAMK2A	Vehicle	OCI-P5x (serous)	1	88.2
CAMK2A	Vehicle	OCI-P5x (serous)	2	64 (active)
CAMK2A	Vehicle	OCI-P5x (serous)	3	96.7
WNT7A	Rucaparib	OCI-C5x (clear cell)	1	75.6 (active)
WNT7A	Rucaparib	OCI-C5x (clear cell)	2	69 (active)
WNT7A	Rucaparib	OCI-C5x (clear cell)	3	64.4 (active)
WNT7A	Rucaparib	OCI-P5x (serous)	1	83.4
WNT7A	Rucaparib	OCI-P5x (serous)	2	77.3 (active)
WNT7A	Rucaparib	OCI-P5x (serous)	3	72.3 (active)
WNT7A	Vehicle	OCI-C5x (clear cell)	1	56.9 (active)
WNT7A	Vehicle	OCI-C5x (clear cell)	2	56.3 (active)
WNT7A	Vehicle	OCI-C5x (clear cell)	3	69 (active)
WNT7A	Vehicle	OCI-P5x (serous)	1	73 (active)
WNT7A	Vehicle	OCI-P5x (serous)	2	107
WNT7A	Vehicle	OCI-P5x (serous)	3	116
